Measured data: PubChem BioAssay AID504793 (Drosophila RNAi Screening Center, 2011)
Test: 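Whole-genome screen for parts of the DNA damage checkpoint at G2/M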 (primary screen). System: Drosophila S2R+ cells. Reagents: long dsRNA against Drosophila genes, about 0.25 µg dsRNA per well. Time to read-out: 4 days of dsRNA, then 4 hours of drug before read-out. Challenge: doxorubicin 0.5 µM for 4 hours to cause double-strand breaks, in cells also given a low, harmless dose of dsRNA against nbs to sensitise the assay. Measurement: 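Mitotic index as the number of phospho-histone H3-positive cells in each well following doxorubicin, given as raw counts without normalisation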. Reading the numbers: mitotic cells: higher = more cells in mitosis, weaker G2 arrest. Active means: 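Genes are called active only when high mitotic counts were reproduced with independent dsRNAs and mitosis was checked for delay without damage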. Meaning of the calls: active = confirmed in follow-up tests; inactive = not confirmed.
The screen tested about 23,000 reagents; shown is a random part of those that have a named target and a result. Of all reagents, 62 (0.27%) got an active call. 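Calls come from follow-up tests whose scores are not deposited, so confirmed genes may have low counts here; counts are not normalised per plate.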 Raw values are not corrected between plates. The numbers tell different reagents against one gene apart. Names joined by + are all predicted targets of the reagent.

| Gene | reagent | mitotic cells, replicate 1 | Outcome |
| --- | --- | --- | --- |
| Hydr1 | 1 | 6 | inactive |
| Gr22c | 1 | 9 | inactive |
| Gr22c | 2 | 4 | inactive |
| Prosbeta1 | 1 | 6 | inactive |
| CG8746 | 1 | 3 | inactive |
| ast | 1 | 5 | inactive |
| ast | 2 | 10 | inactive |
| CG9117 | 1 | 8 | inactive |
| Nlg2 | 1 | 8 | inactive |
| Nlg2 | 2 | 2 | inactive |
| CG14330 | 1 | 18 | inactive |
| Bet3 | 1 | 10 | inactive |
| CG10353 | 1 | 12 | inactive |
| CG10353 | 2 | 4 | inactive |
| Rm62 | 1 | 3 | inactive |
| Rm62 | 2 | 7 | inactive |
| CG5693 | 1 | 8 | inactive |
| CG11007 | 1 | 6 | inactive |
| egh | 1 | 8 | inactive |
| egh | 2 | 8 | inactive |
| CG14414 | 1 | 16 | inactive |
| Yeti | 1 | 60 | active |
| CG31777 | 1 | 3 | inactive |
| eIF2Balpha | 1 | 5 | inactive |
| Takl1 | 1 | 6 | inactive |
| Takl1 | 2 | 7 | inactive |
| CG8197 | 1 | 10 | inactive |
| rngo | 1 | 13 | inactive |
| rngo | 2 | 5 | inactive |
| Or47a | 1 | 1 | inactive |
| rdgC | 1 | 4 | inactive |
| CG30373 | 1 | 1 | inactive |
| CG30373 | 2 | 8 | inactive |
| RpS18 | 1 | 3 | inactive |
| CG10165 | 1 | 6 | inactive |
| CG8366 | 1 | 11 | inactive |
| CG8135 + BBIP1 | 1 | 6 | inactive |
| CG8135 + BBIP1 | 2 | 4 | inactive |
| CG8135 + BBIP1 | 3 | 2 | inactive |
| Est-Q | 1 | 5 | inactive |
| CG11663 | 1 | 15 | inactive |
| Jhbp4 | 1 | 2 | inactive |
| rdgB | 1 | 7 | inactive |
| rdgB | 2 | 7 | inactive |
| Cyp313a2 | 1 | 4 | inactive |
| Ptp36E | 1 | 7 | inactive |
| l(1)G0289 | 1 | 8 | inactive |
| l(1)G0289 | 2 | – | inactive |
| CG15646 | 1 | 7 | inactive |
| Miox | 1 | 5 | inactive |
| Miox | 2 | 6 | inactive |
| Nep7 | 1 | 11 | inactive |
| Nep7 | 2 | 13 | inactive |
| CG16710 | 1 | 18 | inactive |
| mRpL49 | 1 | 10 | inactive |
| CG7685 | 1 | 12 | inactive |
| CG7685 | 2 | 8 | inactive |
| mRpL54 | 1 | 6 | inactive |
| CG13002 | 1 | 12 | inactive |
| CG13002 | 2 | 4 | inactive |
| ACXA | 1 | 5 | inactive |
| ACXA | 2 | 14 | inactive |
| CG11425 | 1 | 5 | inactive |
| CG11425 | 2 | 4 | inactive |
| Hat1 | 1 | 5 | inactive |
| Hat1 | 2 | 6 | inactive |
| C15 | 1 | 4 | inactive |
| BtbVII | 1 | 4 | inactive |
| BtbVII | 2 | 4 | inactive |
| BtbVII | 3 | 11 | inactive |
| CG4630 | 1 | 11 | inactive |
| CG4630 | 2 | 5 | inactive |
| jing | 1 | 9 | inactive |
| jing | 2 | 3 | inactive |
| Hex-t1 | 1 | 11 | inactive |
| Hex-t1 | 2 | 8 | inactive |
| CG7069 | 1 | 9 | inactive |
| CG15873 | 1 | 6 | inactive |
| CG30375 | 1 | 7 | inactive |
| mlt | 1 | 2 | inactive |
| mlt | 2 | 7 | inactive |
| CG14537 | 1 | 3 | inactive |
| CG30280 | 1 | 9 | inactive |
| Eip74EF | 1 | 4 | inactive |
| Eip74EF | 2 | 9 | inactive |
| pAbp | 1 | 2 | inactive |
| Tsp39D | 1 | 5 | inactive |
| CG17486 | 1 | 4 | inactive |
| CG31807 | 1 | 3 | inactive |
| CG10803 | 1 | 7 | inactive |
| CG10803 | 2 | 5 | inactive |
| shi | 1 | 6 | inactive |
| shi | 2 | 5 | inactive |
| CG5770 | 1 | 3 | inactive |
| CG5770 | 2 | 4 | inactive |
| CG5810 | 1 | 10 | inactive |
| CG5810 | 2 | 11 | inactive |
| Trpml + CG42638 | 1 | 11 | inactive |
| fand | 1 | 3 | inactive |
| fand | 2 | 8 | inactive |
| CG16799 | 1 | 4 | inactive |
| CG16799 | 2 | 10 | inactive |
| wisp | 1 | 10 | inactive |
| wisp | 2 | 7 | inactive |
| upd2 | 1 | 19 | inactive |
| upd2 | 2 | 2 | inactive |
| Inx7 + cm | 1 | 7 | inactive |
| CG31296 | 1 | 14 | inactive |
| Pdfr | 1 | 9 | inactive |
| CG6978 | 1 | 9 | inactive |

Targets above whose target name starts with U or u (2):
| Gene | reagent | mitotic cells, replicate 1 | Outcome |
| --- | --- | --- | --- |
| upd2 | 1 | 19 | inactive |
| upd2 | 2 | 2 | inactive |
